Results are given in words; binding and its absence hold for the method and conditions named. In cells and extracts the contact can be indirect. Here binding means that the protein was enriched with, or labelled near, the bait; the list need not be complete.
B1: GHITM (growth hormone-inducible transmembrane protein) (protein, UniProt Q9H3K2 46-345)
chain: ATKTRIGIRRGRTGQELKEAALEPSMEKIFKIDQMGRWFVAGGAAVGLGALCYYGLGLSNEIGAIEKAVIWPQYVKDRIHSTYMYLAGSIGLTALSAIAISRTPVLMNFMMRGSWVTIGVTFAAMVGAGMLVRSIPYDQSPGPKHLAWLLHSGVMGAVVAPLTILGGPLLIRAAWYTAGIVGGLSTVAMCAPSEKFLNMGAPLGVGLGLVFVSSLGSMFLPPTTVAGATLYSVAMYGGLVLFSMFLLYDTQKVIKRAEVSPMYGVQKYDPINSMLSIYMDTLNIFMRVATMLATGGNRKK
B2: COX7A2L (protein, UniProt O14548 56-114)
chain: GKNKVPELQKFFQKADGVPVYLKRGLPDQMLYRTTMALTVGGTIYCLIALYMASQPKNK

Chains of the proteins cited; added tags and fusions are not shown. Residues count along the entry.
UniProt Q9UDW1: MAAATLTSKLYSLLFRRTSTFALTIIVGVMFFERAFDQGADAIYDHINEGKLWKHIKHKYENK
UniProt P14927: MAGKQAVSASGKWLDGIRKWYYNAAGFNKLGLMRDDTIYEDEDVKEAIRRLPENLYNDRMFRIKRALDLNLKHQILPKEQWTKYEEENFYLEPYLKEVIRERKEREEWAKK
UniProt P07919, residues 14-91: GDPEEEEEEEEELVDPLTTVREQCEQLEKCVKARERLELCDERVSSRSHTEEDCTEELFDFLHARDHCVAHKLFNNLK
UniProt P10606, residues 32-129: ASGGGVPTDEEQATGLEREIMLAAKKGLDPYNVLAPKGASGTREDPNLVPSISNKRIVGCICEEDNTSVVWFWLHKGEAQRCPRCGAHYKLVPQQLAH
UniProt O14949: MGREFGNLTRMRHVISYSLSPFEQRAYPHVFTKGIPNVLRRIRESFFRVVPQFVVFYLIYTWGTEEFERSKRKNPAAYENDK
UniProt P09669: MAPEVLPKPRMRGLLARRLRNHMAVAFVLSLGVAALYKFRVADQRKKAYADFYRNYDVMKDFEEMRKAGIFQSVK

Each molecule was assayed against HA-tagged UQCR10 (UQCR10^HA) (human) (UniProt Q9UDW1) (assay: affinity purification with mass spectrometry; anti-HA antibody conjugated to Sepharose beads; HA-tagged cIII2 subunit (UQCR10^HA or CYC1^HA) expressed in WT and Δ4-CYB cybrids, SILAC heavy/light reciprocal labelling in duplicate, Δ4-CYB against WT ratios).

binding, binds:
UQCRB (from UniProt P14927 1-111), UQCRH (from UniProt P07919 14-91), COX5B (from UniProt P10606 32-129), UQCRQ (from UniProt O14949 1-82), COX6C (from UniProt P09669 1-75), B1, B2
